In all, about 320,000 compounds went through this assay and about 2,100 (0.66%) were called active. The inconclusive results got no clear call from the source; some entries with a clear call stand among them for comparison. Calls come from the whole dose curve; as a rule, active = well fitted inhibition curve with a large enough effect in the signal ratio, with a control signal flat (not every such curve was filed as active); inconclusive = small, poorly fitted or top-dose-only effect, or effect the other way, or a change in a side signal; inactive = flat fitted curve, though single readings scatter; the % refers to the signal ratio. Where the call is inconclusive, the potency comes from a doubtful curve fit.
Assay: qHTS Assay for Lipid Storage Modulators in Drosophila S3 Cells
Settings: BODIPY lipid droplet fluorescence, 18-24 h, cells fed with added oleic acid; lipid storage change, negative = inhibition: at 46.1 µM (top of the series) unless noted
Summary of the method: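 Laser-scanning cytometry quantifies lipid droplet accumulation (500–530 nm total intensity; droplet/cell object ratio) in oleic acid-fed (400 uM added) Drosophila S3 cells treated with a concentration series. 20 uM Triacsin C defined 100% inhibition.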
In the case of `CN1CCN(c2ccccc2NC(=O)c2ccc(-c3cccc([N+](=O)[O-])c3)o2)CC1`, the Potency is reported as inconclusive: 32.6 µM [falling, single point]. For `CC(=O)c1ccc(NS(=O)(=O)c2ccc(C(C)(C)C)cc2)cc1`, the lipid storage change, negative = inhibition was inconclusive: -20.1%. In the case of `C=CCc1ccccc1Oc1cc(OC)nc(N)n1`, the Potency is reported as inconclusive: 0.326 µM [activator, partial curve, poor fit]. For `COc1ccc(NC(=O)COc2nsnc2N2CCCCC2)cc1`, the lipid storage change, negative = inhibition was inconclusive: 24.8%. With `Cc1cccc(NC(=O)c2nc[nH]c2C(=O)N[C@@H](CC(C)C)C(=O)OC(C)(C)C)c1` the lipid storage change, negative = inhibition was inconclusive: -37%. With `CCOc1ccc(S(=O)(=O)c2c[nH]c3ccc(C)cc3c2=O)cc1` the Potency was inconclusive: 29.1 µM [activator, partial curve, poor fit]. With `CC(OC(=O)CCCc1nc2ccccc2s1)C(N)=O` (stereo not drawn) the Potency was active: 23.1 µM. For `CNC(=S)N(CCCn1ccnc1)Cc1c(F)cccc1Cl`, the Potency was active: 3.26 µM. With `CC(=O)c1cnc(Nc2cccc(Cl)c2Cl)s1` the lipid storage change, negative = inhibition was inconclusive: 0.612%. With `CN(C)C(=S)Nc1cccc(F)c1` the lipid storage change, negative = inhibition was “inactive”. For `O=C(NCc1ccccc1)C(c1ccc(O)cc1)N(C(=O)c1cnccn1)c1ccccc1` (stereo not drawn), the Potency was inconclusive: 29.1 µM [activator, single point]. With `COc1cc(CNC2CCCC2)cc(Br)c1OCC(=O)Nc1ccccc1C` the lipid storage change, negative = inhibition was inconclusive: 17.8%. With `CC(C)[C@H](NC(=O)[C@H]1N2C(=O)c3ccccc3C2SC1(C)C)C(=O)NCc1ccco1` (stereo partly drawn) the Potency was inconclusive: 29.1 µM [falling, single point]. In the case of `COc1cccc2sc(NC(=O)c3ccc(S(=O)(=O)N4CCOCC4)cc3)nc12`, the Potency is reported as inconclusive: 2.31 µM [activator, single point]. With `Cc1noc(C)c1C(=O)Nc1ccc(F)cc1F` the lipid storage change, negative = inhibition was inconclusive: 24.6%. For `CCOc1ccc(NC(=O)Nc2ccc(Cc3ccncc3)cc2)cc1`, the Potency was inconclusive: 1.64 µM [activator, single point]. With `COc1ccc(S(=O)(=O)/N=C2/NC(=O)/C(=C/c3ccco3)S2)cc1` the lipid storage change, negative = inhibition was inconclusive: 13.6%. For `O=C(c1ccco1)N1CCN(C(=O)C2c3ccccc3Oc3ccccc32)CC1`, the lipid storage change, negative = inhibition was inconclusive: 13.4%. For `Cc1cc(NS(=O)(=O)c2ccc(NC(=S)NCc3ccccc3)cc2)no1`, the lipid storage change, negative = inhibition was inconclusive: 50.6%. For `O=C(NCc1ccon1)C1CCC(=O)N(CCc2cccc(F)c2)C1` (stereo not drawn), the Potency was inconclusive: 29.1 µM [activator, single point]. In the case of `Cc1ccc(N(C(C)C(=O)NCc2ccncc2)S(C)(=O)=O)cc1C` (stereo not drawn), the Potency is reported as inconclusive: 0.326 µM [falling, partial curve, poor fit]. In the case of `C=CCSc1nnc2c(n1)OC(c1ccco1)Nc1ccccc1-2` (stereo not drawn), the lipid storage change, negative = inhibition is reported as inconclusive: 16.5%. For `O=C(CCSCc1ccc(Cl)cc1)NCCc1ccccc1`, the lipid storage change, negative = inhibition was inconclusive: 1.23%. With `Cc1nn(-c2ccccc2)c2c1C1(C(=O)Nc3ccccc31)N1C(=N2)Sc2ccccc21` (stereo not drawn) the lipid storage change, negative = inhibition was inconclusive: 24%. For `CSc1nnc(-c2cccn(Cc3ccccc3)c2=O)o1`, the lipid storage change, negative = inhibition was inconclusive: 12.3%. With `CNc1nnc(SCC(=O)c2cc(C)n(C3CC3)c2C)s1` the lipid storage change, negative = inhibition was inconclusive: -3.61%. For `COC(=O)C(O)(CC(=O)Nc1cc(OC)c(OC)c(OC)c1)C(F)(F)F` (stereo not drawn), the lipid storage change, negative = inhibition was inconclusive: 13.2%. In the case of `Cc1cc2occ(CC(=O)NCc3cccs3)c2cc1C(C)C`, the Potency is reported as active: 1.46 µM. In the case of `CCOc1ccc(NC(=O)CSc2nc3c([nH]c4ccccc43)c(=O)n2C)cc1`, the Potency is reported as inconclusive: 0.13 µM [activator, full curve, poor fit]. In the case of `Cc1ccccc1C(=O)Nc1ccc(CN2CCOCC2)cc1`, the lipid storage change, negative = inhibition is reported as inconclusive: 75.5%. For `COc1cc(OC)nc(NC(=O)CCl)n1`, the lipid storage change, negative = inhibition was inconclusive: -2.35%. For `CCOC(=O)c1c(NC(=O)CCl)sc(CN(C)C)c1-c1ccccc1`, the lipid storage change, negative = inhibition was inconclusive: 46%. With `Cc1c(C(=O)O)oc2ccc(S(=O)(=O)N3CCCCC3C(=O)O)cc12` (stereo not drawn) the lipid storage change, negative = inhibition was inconclusive: -44.7%. In the case of `COc1ccc(S(=O)(=O)N2CCOCC2)cc1NC(=O)c1ccncc1`, the lipid storage change, negative = inhibition is reported as inconclusive: 17.1%. With `CCOC(=O)N1CCC(N(CCN(C)C)C(=S)Nc2cc(Cl)ccc2C)CC1` the lipid storage change, negative = inhibition was inconclusive: 11.4%. With `N#CC(c1ccc(=O)[nH]n1)c1ccc(Cl)cc1Cl` (stereo not drawn) the lipid storage change, negative = inhibition was inconclusive: -79.1%. In the case of `N#CC(c1ccccc1)(c1ncc(C(F)(F)F)cc1Cl)N1CCOCC1` (stereo not drawn), the lipid storage change, negative = inhibition is reported as inconclusive: 27.4%. For `Cc1ccc(S(=O)(=O)CC(=O)Nc2ccc3nc(C)sc3c2)cc1`, the Potency was inconclusive: 9.2 µM [activator, partial curve, poor fit]. With `Cc1ccc(S(=O)(=O)CCC(=O)Nc2ccc(Br)cc2)cc1` the lipid storage change, negative = inhibition was inconclusive: -33.1%. With `Cc1ccc(-c2nn(C)c(=O)c3ccccc23)cc1CNC(=O)CSc1nc2ccccc2o1` the Potency was inconclusive: 1.64 µM [activator, single point]. With `O=C(O)c1cccc(N/N=C/c2sc(N3CCOCC3)nc2-c2ccccc2)c1` the Potency was inconclusive: 6.51 µM [activator, partial curve, poor fit]. For `COc1ccc(NC(=O)CC(C)n2ccnc2)cc1` (stereo not drawn), the Potency was inconclusive: 0.13 µM [activator, full curve, poor fit]. With `COc1ccc(C(=O)Oc2ccc3c(C)cc(=O)oc3c2C(C)=O)cc1` the lipid storage change, negative = inhibition was inconclusive: 1.17%. For `Cc1ccc(S(=O)(=O)NCc2ccccc2C)cc1`, the lipid storage change, negative = inhibition was inconclusive: -3.71%. In the case of `CCOCC(=O)Nc1c(C(=O)Nc2ccc3c(c2)OCCO3)oc2ccccc12`, the lipid storage change, negative = inhibition is reported as inconclusive: 15.8%. For `O=S1(=O)CCOCCCN1Cc1cccc(F)c1`, the Potency was inconclusive: 4.11 µM [activator, partial curve]. For `C[C@H]1CN(C2CCCCC2)C(=O)[C@@H]1CC(=O)NCc1ccccc1`, the Potency was inconclusive: 23.1 µM [activator, single point]. With `COc1ccc(C2NC(=O)NC3=C2CCc2ccccc23)cc1` (stereo not drawn) the Potency was inconclusive: 2.31 µM [activator, partial curve, poor fit]. With `CCc1nnc(NC(=O)C2CCCN2C(=O)NC2CCCCC2)s1` (stereo not drawn) the Potency was inconclusive: 29.1 µM [falling, single point]. In the case of `COc1ccc(-n2c(SCC(=O)C(C)(C)C)nc3c(sc(=S)n3-c3ccccc3)c2=O)c(OC)c1`, the Potency is reported as inconclusive: 29.1 µM [rising, single point]. With `Nc1nccnc1C(=O)OCC(=O)N1CCN(S(=O)(=O)c2ccc(Cl)cc2)CC1` the lipid storage change, negative = inhibition was inconclusive: 21.2%. With `COc1ccc(C(C(=O)NC2CCCCC2)N(CC2CCCO2)C(=O)CNC(=O)c2ccco2)cc1` (stereo not drawn) the lipid storage change, negative = inhibition was inconclusive: 11%. In the case of `Cc1cccn2c(=O)c3cc(C(=O)NCCC4=CCCCC4)n(C)c3nc12`, the Potency is reported as active: 18.4 µM. For `CSc1nnc(NC(=O)c2ccc3c(c2)OCO3)s1`, the lipid storage change, negative = inhibition was inconclusive: 18.6%. In the case of `CCCc1cc(=O)[nH]c2nnc(SCC(=O)Nc3cc(C)on3)n12`, the lipid storage change, negative = inhibition is reported as “inconclusive”. For `Cc1ccc(NC(C(N)=O)c2c(C)[nH]c(=O)[nH]c2=O)cc1` (stereo not drawn), the lipid storage change, negative = inhibition was inconclusive: -67.9%. With `COc1ccc(-c2nc(CSCC(=O)NCCC3=CCCCC3)c(C)o2)cc1OC` the lipid storage change, negative = inhibition was inconclusive: -22.3%. For `O=C(O)c1ccccc1C(=O)NNc1ccc(Cl)cc1`, the lipid storage change, negative = inhibition was “inactive”. In the case of `N=C(N)c1ccc(/C=C/c2ccc(C(=N)N)cc2O)cc1`, the lipid storage change, negative = inhibition is reported as inconclusive: -16.9%. With `Cc1cccc(OCc2nnc(SCC(=O)NC3CCCCC3)n2C)c1` the Potency was inconclusive: 32.6 µM [activator, partial curve]. In the case of `Cc1ccc(C(=O)NCC(c2ccco2)N2CCOCC2)cc1` (stereo not drawn), the lipid storage change, negative = inhibition is reported as inconclusive: 31.8%. In the case of `COc1ccc(N2C(=O)c3ccccc3C2=O)cc1`, the lipid storage change, negative = inhibition is reported as “inactive”. In the case of `O=C(NCc1cn2ccsc2n1)c1c(F)cccc1Cl`, the Potency is reported as inconclusive: 29.1 µM [rising, single point]. With `CN(C)c1oc(-c2ccccc2Cl)nc1S(=O)(=O)c1ccccc1` the Potency was inconclusive: 29.1 µM [activator, partial curve, poor fit]. For `Cc1ccc(Cn2c(C3CCCN3c3nc(C)cs3)nc3cc(C(F)(F)F)ccc32)cc1` (stereo not drawn), the Potency was inconclusive: 29.1 µM [activator, single point]. For `CC(C)c1ccc(S(=O)(=O)c2cnc(=S)[nH]c2N)cc1`, the lipid storage change, negative = inhibition was inconclusive: 18.7%. In the case of `Cc1ccc(S(=O)(=O)NCc2ccc(C(=O)N3CCN(c4ccccn4)CC3)cc2)cc1`, the lipid storage change, negative = inhibition is reported as inconclusive: 25%. For `C/C(=N\NC(=O)OC(C)(C)C)c1ccc[nH]1`, the lipid storage change, negative = inhibition was inconclusive: 22.4%. For `CCCCCCCCCCCCCCCC(O)C(N)CO` (stereo not drawn), the lipid storage change, negative = inhibition was inconclusive: 9.31%. In the case of `Cc1ccc(-c2nc(-c3ccncc3)no2)cc1Cl`, the lipid storage change, negative = inhibition is reported as inconclusive: 8.72%. In the case of `CCc1ccc(NS(=O)(=O)c2ccc3[nH]cc(C(=O)N4CCc5ccccc54)c(=O)c3c2)cc1`, the lipid storage change, negative = inhibition is reported as inconclusive: 28.2%. With `C(=N\Nc1ccc2ccccc2n1)/c1ccc2c(c1)OCCO2` the lipid storage change, negative = inhibition was inconclusive: -27%. In the case of `Cc1[nH][nH]c(=O)c1C(c1ccc(-c2ccccc2C(=O)O)o1)c1c(C)[nH][nH]c1=O`, the lipid storage change, negative = inhibition is reported as inconclusive: -39.2%. In the case of `CCOc1cc(C2CC(=O)NC(SCC)=C2C#N)ccc1O` (stereo not drawn), the Potency is reported as inconclusive: 16.4 µM [activator, partial curve]. For `COc1ccc(S(=O)(=O)Cc2ccccc2)cc1N`, the lipid storage change, negative = inhibition was inconclusive: 27.3%. With `Clc1ccc(CSc2ccc(-c3ccccn3)nn2)cc1` the lipid storage change, negative = inhibition was inconclusive: -10.2%. For `CCN1C(=O)[C@H]2[C@@H](c3ccc(C)cc3)N3C(=O)N(c4ccccc4)C(=O)[C@@]3(C)[C@H]2C1=O`, the lipid storage change, negative = inhibition was inconclusive: -48.2%. With `O=C(N/N=C/C=C\c1ccccc1[N+](=O)[O-])c1ccccn1` the Potency was inconclusive: 2.31 µM [activator, partial curve, poor fit].

— PubChem BioAssay AID2685 (National Center for Advancing Translational Sciences (NCATS), 2010)
% is set by controls: 0 for no effect and ±100 for the full control effect; potency is the fitted concentration of half-maximal effect.
